Experimental data reported in the supplement of paper PMC11732987, “Enantioselective OTUD7B fragment discovery through chemoproteomics screening and high-throughput optimisation” (Communications Chemistry, 2025).
The list shows a part of the results. The data scatter; read single values as rough.

The chains behind the UniProt entries cited, without tags or fusion partners. Where a name states a change or a piece, a line headed by the entry shows the natural chain unless it says otherwise. Residues count along the entry.
UniProt A6NHR9: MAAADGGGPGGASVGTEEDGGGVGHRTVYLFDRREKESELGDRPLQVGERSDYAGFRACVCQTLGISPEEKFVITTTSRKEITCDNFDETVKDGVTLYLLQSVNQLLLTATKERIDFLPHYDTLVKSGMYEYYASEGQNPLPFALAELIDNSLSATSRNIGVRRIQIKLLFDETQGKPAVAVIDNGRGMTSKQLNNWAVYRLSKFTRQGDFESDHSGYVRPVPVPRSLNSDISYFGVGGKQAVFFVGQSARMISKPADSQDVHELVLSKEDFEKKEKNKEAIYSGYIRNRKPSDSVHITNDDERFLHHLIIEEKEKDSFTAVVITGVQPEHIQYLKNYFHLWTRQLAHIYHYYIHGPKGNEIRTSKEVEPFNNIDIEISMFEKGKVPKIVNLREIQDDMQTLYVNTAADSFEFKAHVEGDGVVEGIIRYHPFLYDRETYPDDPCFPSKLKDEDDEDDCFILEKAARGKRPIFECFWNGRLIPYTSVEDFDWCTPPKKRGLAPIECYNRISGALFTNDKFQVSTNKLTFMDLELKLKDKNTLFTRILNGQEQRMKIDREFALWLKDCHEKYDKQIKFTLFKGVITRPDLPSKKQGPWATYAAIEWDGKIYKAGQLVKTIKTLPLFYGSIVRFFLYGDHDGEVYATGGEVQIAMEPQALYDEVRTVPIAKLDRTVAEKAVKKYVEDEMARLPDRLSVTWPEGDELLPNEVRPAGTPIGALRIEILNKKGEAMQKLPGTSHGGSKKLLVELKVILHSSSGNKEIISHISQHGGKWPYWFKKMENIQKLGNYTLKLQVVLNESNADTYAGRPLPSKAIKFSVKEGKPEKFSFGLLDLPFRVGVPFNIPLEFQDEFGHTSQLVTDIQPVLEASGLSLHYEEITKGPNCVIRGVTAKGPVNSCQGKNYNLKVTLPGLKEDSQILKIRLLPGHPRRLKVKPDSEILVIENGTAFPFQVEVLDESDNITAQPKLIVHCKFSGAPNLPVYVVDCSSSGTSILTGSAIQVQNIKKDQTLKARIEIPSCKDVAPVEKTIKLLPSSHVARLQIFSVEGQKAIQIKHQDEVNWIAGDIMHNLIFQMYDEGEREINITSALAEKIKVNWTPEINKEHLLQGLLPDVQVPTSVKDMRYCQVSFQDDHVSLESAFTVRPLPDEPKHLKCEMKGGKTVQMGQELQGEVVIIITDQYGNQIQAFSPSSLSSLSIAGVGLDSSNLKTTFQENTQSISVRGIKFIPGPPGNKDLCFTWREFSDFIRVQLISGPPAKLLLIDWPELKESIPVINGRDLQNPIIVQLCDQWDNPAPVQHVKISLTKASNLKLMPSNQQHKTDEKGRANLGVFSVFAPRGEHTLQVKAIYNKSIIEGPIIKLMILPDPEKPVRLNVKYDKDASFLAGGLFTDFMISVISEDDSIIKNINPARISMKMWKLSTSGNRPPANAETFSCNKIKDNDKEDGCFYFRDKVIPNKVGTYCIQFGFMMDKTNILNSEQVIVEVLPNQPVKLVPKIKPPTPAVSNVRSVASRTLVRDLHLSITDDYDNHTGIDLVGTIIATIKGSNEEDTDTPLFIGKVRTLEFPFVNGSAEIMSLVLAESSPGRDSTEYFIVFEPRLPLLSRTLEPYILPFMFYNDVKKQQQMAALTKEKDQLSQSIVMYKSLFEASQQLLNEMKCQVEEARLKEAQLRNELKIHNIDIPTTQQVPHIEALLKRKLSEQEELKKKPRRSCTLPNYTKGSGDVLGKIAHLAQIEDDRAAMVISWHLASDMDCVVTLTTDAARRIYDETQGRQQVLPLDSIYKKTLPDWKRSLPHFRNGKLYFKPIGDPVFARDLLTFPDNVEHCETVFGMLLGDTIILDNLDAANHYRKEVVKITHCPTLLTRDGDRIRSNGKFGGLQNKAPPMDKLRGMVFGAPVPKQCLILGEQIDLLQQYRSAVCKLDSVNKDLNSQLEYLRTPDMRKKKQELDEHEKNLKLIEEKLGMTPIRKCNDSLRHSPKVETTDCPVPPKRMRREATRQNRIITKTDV
UniProt P51531, whole entry, looked up: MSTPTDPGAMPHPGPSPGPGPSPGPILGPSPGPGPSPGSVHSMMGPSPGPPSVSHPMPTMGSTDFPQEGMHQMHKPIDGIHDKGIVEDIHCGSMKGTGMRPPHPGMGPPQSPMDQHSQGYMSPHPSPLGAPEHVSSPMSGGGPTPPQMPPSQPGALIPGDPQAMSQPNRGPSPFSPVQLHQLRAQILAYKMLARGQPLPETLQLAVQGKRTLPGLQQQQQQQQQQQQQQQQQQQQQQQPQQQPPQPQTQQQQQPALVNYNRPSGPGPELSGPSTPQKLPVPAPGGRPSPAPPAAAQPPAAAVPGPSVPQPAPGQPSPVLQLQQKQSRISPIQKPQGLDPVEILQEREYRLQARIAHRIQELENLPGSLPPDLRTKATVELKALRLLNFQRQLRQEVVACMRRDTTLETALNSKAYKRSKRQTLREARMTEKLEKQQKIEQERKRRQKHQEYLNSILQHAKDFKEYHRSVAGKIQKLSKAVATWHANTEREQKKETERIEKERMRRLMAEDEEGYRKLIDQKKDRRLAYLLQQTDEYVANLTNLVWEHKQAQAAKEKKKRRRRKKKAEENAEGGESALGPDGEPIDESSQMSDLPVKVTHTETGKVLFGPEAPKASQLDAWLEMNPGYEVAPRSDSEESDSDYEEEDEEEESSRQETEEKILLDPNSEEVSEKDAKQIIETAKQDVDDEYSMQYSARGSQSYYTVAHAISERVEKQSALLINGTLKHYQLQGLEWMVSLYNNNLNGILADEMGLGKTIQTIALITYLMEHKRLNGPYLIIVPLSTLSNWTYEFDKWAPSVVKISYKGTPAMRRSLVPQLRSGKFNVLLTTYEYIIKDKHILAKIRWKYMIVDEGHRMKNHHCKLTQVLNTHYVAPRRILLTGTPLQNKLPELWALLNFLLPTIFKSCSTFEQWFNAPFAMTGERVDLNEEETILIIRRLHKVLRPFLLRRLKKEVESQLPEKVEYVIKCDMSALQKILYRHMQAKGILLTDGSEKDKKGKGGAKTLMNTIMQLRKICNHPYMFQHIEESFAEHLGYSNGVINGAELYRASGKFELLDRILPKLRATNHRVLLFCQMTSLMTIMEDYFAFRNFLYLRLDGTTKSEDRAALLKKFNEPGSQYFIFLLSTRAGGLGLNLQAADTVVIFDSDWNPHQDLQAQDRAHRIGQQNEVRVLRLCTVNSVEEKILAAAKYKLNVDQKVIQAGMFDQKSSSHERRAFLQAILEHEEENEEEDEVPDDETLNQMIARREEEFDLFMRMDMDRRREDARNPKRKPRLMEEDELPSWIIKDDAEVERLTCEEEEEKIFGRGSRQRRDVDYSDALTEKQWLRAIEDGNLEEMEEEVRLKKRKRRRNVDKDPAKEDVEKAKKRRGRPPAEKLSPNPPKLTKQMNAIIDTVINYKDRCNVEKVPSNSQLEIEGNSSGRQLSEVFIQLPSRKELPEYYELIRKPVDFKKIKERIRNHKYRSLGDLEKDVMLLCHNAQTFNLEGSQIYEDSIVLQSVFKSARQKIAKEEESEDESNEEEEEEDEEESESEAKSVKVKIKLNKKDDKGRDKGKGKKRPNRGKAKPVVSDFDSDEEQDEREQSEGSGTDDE
UniProt Q9NXE4: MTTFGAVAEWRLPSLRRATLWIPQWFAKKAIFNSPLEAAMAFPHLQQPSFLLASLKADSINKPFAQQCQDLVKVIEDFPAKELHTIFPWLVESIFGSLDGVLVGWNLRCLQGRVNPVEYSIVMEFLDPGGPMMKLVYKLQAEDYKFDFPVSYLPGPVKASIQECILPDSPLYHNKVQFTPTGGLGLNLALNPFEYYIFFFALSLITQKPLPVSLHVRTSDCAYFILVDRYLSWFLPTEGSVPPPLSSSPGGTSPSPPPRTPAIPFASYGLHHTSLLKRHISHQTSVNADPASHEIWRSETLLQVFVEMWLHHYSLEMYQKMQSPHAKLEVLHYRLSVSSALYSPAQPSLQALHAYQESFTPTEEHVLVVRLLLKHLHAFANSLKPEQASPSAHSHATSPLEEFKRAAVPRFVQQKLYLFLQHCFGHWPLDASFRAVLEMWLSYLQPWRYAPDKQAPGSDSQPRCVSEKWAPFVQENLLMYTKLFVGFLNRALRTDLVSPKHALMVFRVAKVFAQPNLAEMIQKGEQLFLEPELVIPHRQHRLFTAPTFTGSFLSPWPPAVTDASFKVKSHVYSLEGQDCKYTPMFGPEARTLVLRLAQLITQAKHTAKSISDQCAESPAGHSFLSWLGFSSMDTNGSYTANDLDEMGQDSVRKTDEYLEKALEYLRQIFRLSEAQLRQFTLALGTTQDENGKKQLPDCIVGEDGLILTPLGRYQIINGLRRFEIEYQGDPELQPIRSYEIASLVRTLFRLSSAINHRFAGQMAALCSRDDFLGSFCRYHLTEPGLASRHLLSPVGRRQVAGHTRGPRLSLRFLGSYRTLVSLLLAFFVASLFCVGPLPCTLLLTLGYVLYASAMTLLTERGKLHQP
UniProt P62318, 9-29: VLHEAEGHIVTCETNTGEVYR
UniProt O14745: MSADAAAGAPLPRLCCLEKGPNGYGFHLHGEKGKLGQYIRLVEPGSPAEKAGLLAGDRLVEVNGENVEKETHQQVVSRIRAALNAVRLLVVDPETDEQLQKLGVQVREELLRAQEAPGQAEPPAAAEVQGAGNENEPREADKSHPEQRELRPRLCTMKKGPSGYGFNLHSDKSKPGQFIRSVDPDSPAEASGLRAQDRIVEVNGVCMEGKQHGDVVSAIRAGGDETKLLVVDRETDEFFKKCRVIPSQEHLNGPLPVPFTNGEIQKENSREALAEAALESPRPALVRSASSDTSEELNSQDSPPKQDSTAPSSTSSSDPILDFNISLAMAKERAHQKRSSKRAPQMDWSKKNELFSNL
UniProt Q8WUM9: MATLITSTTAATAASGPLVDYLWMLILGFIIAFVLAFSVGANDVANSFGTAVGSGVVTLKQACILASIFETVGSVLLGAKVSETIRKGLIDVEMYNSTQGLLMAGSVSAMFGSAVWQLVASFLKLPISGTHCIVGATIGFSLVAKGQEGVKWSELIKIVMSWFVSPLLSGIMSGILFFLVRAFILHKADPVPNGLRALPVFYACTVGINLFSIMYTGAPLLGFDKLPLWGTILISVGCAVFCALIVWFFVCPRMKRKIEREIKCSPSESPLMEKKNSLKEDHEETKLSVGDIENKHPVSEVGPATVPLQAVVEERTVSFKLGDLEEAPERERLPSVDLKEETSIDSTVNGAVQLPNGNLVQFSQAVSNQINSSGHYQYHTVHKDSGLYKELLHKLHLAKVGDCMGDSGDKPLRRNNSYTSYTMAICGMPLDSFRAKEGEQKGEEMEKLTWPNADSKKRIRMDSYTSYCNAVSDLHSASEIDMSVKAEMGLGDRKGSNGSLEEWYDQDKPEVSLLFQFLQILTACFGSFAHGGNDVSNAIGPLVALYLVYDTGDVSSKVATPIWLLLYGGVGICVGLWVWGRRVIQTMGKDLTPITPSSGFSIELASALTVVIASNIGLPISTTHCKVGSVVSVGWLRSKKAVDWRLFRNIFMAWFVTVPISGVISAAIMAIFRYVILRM
UniProt Q9UN79, 30-53: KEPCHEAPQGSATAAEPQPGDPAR
UniProt P30825: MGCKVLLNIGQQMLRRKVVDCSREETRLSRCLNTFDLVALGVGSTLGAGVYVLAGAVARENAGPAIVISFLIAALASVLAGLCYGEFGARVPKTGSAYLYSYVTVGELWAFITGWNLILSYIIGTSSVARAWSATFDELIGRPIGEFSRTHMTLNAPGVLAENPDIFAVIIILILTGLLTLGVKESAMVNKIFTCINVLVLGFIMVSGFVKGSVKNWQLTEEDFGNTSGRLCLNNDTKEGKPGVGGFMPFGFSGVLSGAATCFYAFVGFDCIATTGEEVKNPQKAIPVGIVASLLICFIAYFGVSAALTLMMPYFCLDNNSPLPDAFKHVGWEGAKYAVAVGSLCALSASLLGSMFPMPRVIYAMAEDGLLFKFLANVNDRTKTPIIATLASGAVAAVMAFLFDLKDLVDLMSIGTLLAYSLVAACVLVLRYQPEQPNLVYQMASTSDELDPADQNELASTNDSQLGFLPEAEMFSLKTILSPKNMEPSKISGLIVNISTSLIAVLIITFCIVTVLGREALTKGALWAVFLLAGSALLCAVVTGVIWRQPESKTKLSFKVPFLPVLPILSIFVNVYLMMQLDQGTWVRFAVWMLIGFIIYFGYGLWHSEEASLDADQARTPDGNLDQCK
UniProt Q9H7B4: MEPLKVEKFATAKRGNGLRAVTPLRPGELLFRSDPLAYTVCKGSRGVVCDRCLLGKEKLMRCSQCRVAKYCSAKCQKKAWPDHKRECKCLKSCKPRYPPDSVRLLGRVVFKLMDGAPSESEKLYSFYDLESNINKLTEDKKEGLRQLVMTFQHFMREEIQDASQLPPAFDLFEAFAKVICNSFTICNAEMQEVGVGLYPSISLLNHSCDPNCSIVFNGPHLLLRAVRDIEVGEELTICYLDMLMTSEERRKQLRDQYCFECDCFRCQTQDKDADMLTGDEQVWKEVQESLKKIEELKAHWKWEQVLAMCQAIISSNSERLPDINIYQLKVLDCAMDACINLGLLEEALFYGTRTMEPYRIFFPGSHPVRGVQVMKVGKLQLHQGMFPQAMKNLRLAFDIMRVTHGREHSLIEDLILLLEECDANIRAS

What was measured:
[1] = compound: ClCC(=O)N[C@@H]1CCCc2ccccc12; test: log2 mean competition ratio of IA-DTB cysteine labelling (DMSO/compound) (log2 ratio); higher = stronger cysteine engagement by compound; details: treatment time: 4 h, cell line lysate: HEK293T
Procedure: (§1)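 IA-DTB competitive cysteine chemoproteomics in HEK293T RIPA lysate. Lysates were treated with compound 29 or 30 at 50 or 200 µM for 4 h, then IA-DTB (500 µM, 1 h), trypsin-digested, NeutrAvidin-enriched and analysed by diaPASEF. Competition ratio = intensity DMSO / intensity compound (n=4 treated, n=64 DMSO); binding: mean log2 CR ≥ 1 and p ≤ 0.05 plus QC filters. Target is the cysteine site.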

[2] = compound: ClCC(=O)N[C@H]1CCCc2ccccc12; test: as above; details: treatment time: 4 h, cell line lysate: HEK293T
Procedure: as §1

Row | Target | log2 mean competition ratio ([1]; 50 µM) | log2 mean competition ratio ([1]; 200 µM) | log2 mean competition ratio ([2]; 50 µM) | log2 mean competition ratio ([2]; 200 µM)
1 | SMCHD1 C1656 (UniProt A6NHR9) | -0.0523 | -0.0496 | 0.198 | -0.17
2 | SNRNP40 C291 (UniProt Q96DI7) | -0.17 | 0.0784 | -0.275 | 0.103
3 | SMARCA2 C968 (UniProt P51531) | 0.285 | 0.313 | 0.227 | 0.209
4 | SMO C683 | -0.143 | 0.203 | -0.323 | -0.195
5 | SLC49A4 C135 | -0.0197 | -0.338 | -0.482 | 0.0303
6 | SNX30 C381 (UniProt Q5VWJ9) | 0.077 | 0.0113 | -0.337 | 0.129
7 | SMARCD1 C339 (UniProt Q96GM5) | -0.33 | -0.41 |  | -0.234
8 | SMARCA5 C1001 (UniProt O60264) | -0.061 | -0.194 | -0.239 | -0.197
9 | SMPD4 C579 (UniProt Q9NXE4) | 0.058 | 0.196 | -0.0418 | 0.188
10 | SLC25A46 C372 (UniProt Q96AG3) | 0.164 | -0.00678 | -0.00956 | -0.0142
11 | SNRPD3 C20 (UniProt P62318) | -0.132 | 0.00677 | 0.329 | -0.0767
12 | SLC9A3R1 C206 (UniProt O14745) | -0.153 | -0.017 | -0.0647 | 0.0652
13 | SNX25 C60 (UniProt Q9H3E2) | -0.185 | 0.298 | -0.194 | 0.206
14 | SLK C1212 | -0.186 | -0.00775 | 0.00211 | -0.00393
15 | SKA3 C215 (UniProt Q8IX90) | -0.00322 | -0.185 | -0.317 | 0.0626
16 | SLC25A4 C160 (UniProt P12235) | -0.0388 | 0.291 | -0.0251 | 0.311
17 | SLC20A1 C264 (UniProt Q8WUM9) | 0.237 | 0.176 | -0.41 | 0.017
18 | SMCHD1 C1433 (UniProt A6NHR9) | 0.000738 | 0.0726 | -0.716 | 0.21
19 | SLC25A20 C136 (UniProt O43772) | 0.417 | 0.0912 | 0.328 | -0.011
20 | SLC17A5 C83 (UniProt Q9NRA2) | 0.117 | -0.445 | -0.066 | -0.656
21 | SMC1A C1210 (UniProt Q14683) | -0.218 | -0.0122 | -0.224 | -0.0521
22 | SMARCA2 C1296 (UniProt P51531) | -0.188 | -0.0991 | 0.125 | 0.0728
23 | SOX13 C33 (UniProt Q9UN79) | 0.0455 | -0.149 | -0.194 | -0.0507
24 | SLC6A11 C80 | 0.41 | -0.261 | -0.645 | 0.338

Part of the list above, comma-delimited:
Row,Target,log2 mean competition ratio ([1]; 50 µM),log2 mean competition ratio ([1]; 200 µM),log2 mean competition ratio ([2]; 50 µM),log2 mean competition ratio ([2]; 200 µM)
15,SKA3 C215 (UniProt Q8IX90),-0.00322,-0.185,-0.317,0.0626
16,SLC25A4 C160 (UniProt P12235),-0.0388,0.291,-0.0251,0.311
17,SLC20A1 C264 (UniProt Q8WUM9),0.237,0.176,-0.41,0.017
18,SMCHD1 C1433 (UniProt A6NHR9),0.000738,0.0726,-0.716,0.21
19,SLC25A20 C136 (UniProt O43772),0.417,0.0912,0.328,-0.011
20,SLC17A5 C83 (UniProt Q9NRA2),0.117,-0.445,-0.066,-0.656
21,SMC1A C1210 (UniProt Q14683),-0.218,-0.0122,-0.224,-0.0521
22,SMARCA2 C1296 (UniProt P51531),-0.188,-0.0991,0.125,0.0728
23,SOX13 C33 (UniProt Q9UN79),0.0455,-0.149,-0.194,-0.0507
24,SLC6A11 C80,0.41,-0.261,-0.645,0.338

More entries

Row | Target | log2 mean competition ratio ([1]; 50 µM) | log2 mean competition ratio ([1]; 200 µM) | log2 mean competition ratio ([2]; 50 µM) | log2 mean competition ratio ([2]; 200 µM)
25 | SLC7A1 C628 (UniProt P30825) | -0.232 | 0.403 | -0.312 | 0.422
26 | SORT1 C702 (UniProt Q99523) | 0.253 | 0.604 | -0.0354 | 0.52
27 | SLC9A7 C132 (UniProt Q96T83) | -0.146 | -0.0396 | -0.262 | 0.0202
28 | SLC26A2 C48 (UniProt P50443) | -0.0403 | 0.0566 | -0.0414 | -0.159
29 | SLC7A6OS C27 (UniProt Q96CW6) | 0.0239 | 0.00907 | -0.46 | -0.129
30 | SLK C552 | -0.473 | 0.0184 | -0.219 | -0.107
31 | SLC9A3R2 C103 (UniProt Q15599) | -0.301 | -0.17 | -0.192 | 0.158
32 | SLC47A1 C497 | 0.0308 | -0.0932 | 0.373 | -0.282
33 | SMCHD1 C458 (UniProt A6NHR9) | -0.281 | 0.337 | -0.419 | 0.165
34 | SON C2070 (UniProt P18583) | 0.472 | 0.0349 | 0.591 | 0.0439
35 | SOX6 C152 (UniProt P35712) | 0.0571 | 0.715 | 0.155 | 0.428
36 | SLC4A2 C1215 (UniProt P04920) | -0.228 | -0.107 | -0.0601 | -0.025
37 | SLC25A22 C52 (UniProt Q9H936) | 0.351 | 0.193 | -0.038 | 0.17
38 | SMYD4 C412 (UniProt Q8IYR2) | -0.325 | -0.465 | -0.286 | -0.16
39 | SLC5A3 C609 (UniProt P53794) | 0.298 | 0.0158 | 0.137 | 0.243
40 | SLC20A1 C403 (UniProt Q8WUM9) | 0.0607 | 0.0888 | 0.204 | 0.0103
41 | SMARCAD1 C861 (UniProt Q9H4L7) | 0.197 | -0.0298 | -0.122 | -0.0102
42 | SMCHD1 C444 (UniProt A6NHR9) | -0.209 | -0.204 | 8.42e-05 | 0.0274
43 | SOS2 C1255 (UniProt Q07890) | -0.21 | -0.108 | 0.411 | -0.211
44 | SNX7 C248 | -0.105 | 0.0934 | -0.292 | 0.0163
45 | SNX9 C427 (UniProt Q9Y5X1) | -0.00501 | -0.343 | -0.0991 | -0.121
46 | SMCHD1 C1982 (UniProt A6NHR9) | -0.0896 | 0.012 | -0.349 | 0.142
47 | SNAPIN C66 (UniProt O95295) | -0.16 | 0.0145 | 0.0673 | 0.251
48 | SMYD3 C266 (UniProt Q9H7B4) | -0.261 | -0.132 | -0.0247 | -0.112
